Laboratory results published in article PMC7468108 (Communications Biology, 2020).
This continues a long series; more values of the same kind are listed elsewhere.

By UniProt entry, the sequences of proteins in these tests, tags left out. Residues count along the entry.
UniProt P05067, 672-713 limits assumed: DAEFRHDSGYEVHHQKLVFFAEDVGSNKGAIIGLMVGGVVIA

Tests used:
[1] = molecular target: T1, hIAPP (Homo sapiens, UniProt P10997); experiment: CD spectroscopy of hIAPP aggregated with the tested molecules; conditions: hIAPP:compound 1:5
T1 construct: hIAPP is a 37-amino acid neuroendocrine peptide hormone; purchased Peptide 2.0 (USA)
T1 sequence (P10997 34-70 limits assumed): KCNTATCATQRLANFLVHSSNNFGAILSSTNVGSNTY
Protocol: CD analysis was performed also for hIAPP (Fig. 2f and Supplementary Fig. 5). […] With different degrees of effectiveness, the presence of all tested hybrid molecules caused a reduction of the intensity of the CD signal, indicating an overall lower of β-sheet content of hIAPP (Fig. 2f and Supplementary Fig. 5).
(§1) The blank was subtracted from the acquired CD spectra. For the CD study in the presence of the tryptophan-galacosylamine molecules, the spectra of hybrid molecules were also recorded separately and subtracted from the respective sample spectra. The normalized data were plotted using Origin pro 2015 software.

[2] = molecular target: T2, pre-formed fibrils of Aβ42 (Homo sapiens, UniProt P05067); experiment: CD spectroscopy of pre-formed Aβ42 fibrils with the tested molecules; conditions: Aβ42 (10 µM) : molecule 1:5
T2 construct: purchased rPeptide (USA)
Protocol: For efficient treatment of proteinopathies it may be advantageous to disassemble amyloid aggregates/fibrils which are usually already present at the time of diagnosis[75]–[77]. […] Then, various doses of the hybrid molecules were added to the pre-formed fibrils and the mixtures were incubated for additional 10 h. The process of disaggregation was monitored by ThT-binding assay, CD spectroscopy, TEM and Congo red staining (Fig. 5).
as §1

With `NC(Cc1c[nH]c2ccccc12)C(=O)NC(Cc1c[nH]c2ccccc12)C(=O)O` (stereo not shown) [WW] the “Normalized CD spectra” value ([1]; wavelength 190) was 343795.67, the “Normalized CD spectra” value ([1]; wavelength 191) was 354468.38 and the “Normalized CD spectra” value ([1]; wavelength 192) was 358374.14. For the same molecule, the “Normalized CD spectra” value ([1]; wavelength 193) was 355512.94, the “Normalized CD spectra” value ([1]; wavelength 194) was 345884.79 and the “Normalized CD spectra” value ([1]; wavelength 195) was 329489.69. For the same molecule, the “Normalized CD spectra” value ([1]; wavelength 196) was 306327.63, the “Normalized CD spectra” value ([1]; wavelength 197) was 276398.63 and the “Normalized CD spectra” value ([1]; wavelength 198) was 239702.66. For the same molecule, the “Normalized CD spectra” value ([1]; wavelength 199) was 196239.75, the “Normalized CD spectra” value ([1]; wavelength 200) was 146009.88 and the “Normalized CD spectra” value ([1]; wavelength 201) was 61754.89. For the same molecule, the “Normalized CD spectra” value ([1]; wavelength 202) was -24817.98, the “Normalized CD spectra” value ([1]; wavelength 203) was -104541.82 and the “Normalized CD spectra” value ([1]; wavelength 204) was -194140.70. The “Normalized CD spectra” value ([1]; wavelength 205) was -282362.40, the “Normalized CD spectra” value ([1]; wavelength 206) was -361218.83 and the “Normalized CD spectra” value ([1]; wavelength 207) was -426532.70. For the same molecule, the “Normalized CD spectra” value ([1]; wavelength 208) was -491650.06, the “Normalized CD spectra” value ([1]; wavelength 209) was -544493.52 and the “Normalized CD spectra” value ([1]; wavelength 210) was -578332.01. For the same molecule, the “Normalized CD spectra” value ([1]; wavelength 211) was -600611.91, the “Normalized CD spectra” value ([1]; wavelength 212) was -633105.12 and the “Normalized CD spectra” value ([1]; wavelength 213) was -643037.98. For the same molecule, the “Normalized CD spectra” value ([1]; wavelength 214) was -652192.85, the “Normalized CD spectra” value ([1]; wavelength 215) was -643438.51 and the “Normalized CD spectra” value ([1]; wavelength 216) was -628952.36. For the same molecule, the “Normalized CD spectra” value ([1]; wavelength 217) was -616708.30, the “Normalized CD spectra” value ([1]; wavelength 218) was -606924.95 and the “Normalized CD spectra” value ([1]; wavelength 219) was -588274.82. The “Normalized CD spectra” value ([1]; wavelength 220) was -575696.26, the “Normalized CD spectra” value ([1]; wavelength 221) was -554154.00 and the “Normalized CD spectra” value ([1]; wavelength 222) was -531569.83. The “Normalized CD spectra” value ([1]; wavelength 223) was -512246.07, the “Normalized CD spectra” value ([1]; wavelength 224) was -497205.78 and the “Normalized CD spectra” value ([1]; wavelength 225) was -475158.84. The “Normalized CD spectra” value ([1]; wavelength 226) was -452118.88, the “Normalized CD spectra” value ([1]; wavelength 227) was -428570.58 and the “Normalized CD spectra” value ([1]; wavelength 228) was -410402.58. The “Normalized CD spectra” value ([1]; wavelength 229) was -383596.51, the “Normalized CD spectra” value ([1]; wavelength 230) was -367255.25 and the “Normalized CD spectra” value ([1]; wavelength 231) was -339300.49. For the same molecule, the “Normalized CD spectra” value ([1]; wavelength 232) was -313212.22, the “Normalized CD spectra” value ([1]; wavelength 233) was -285392.48 and the “Normalized CD spectra” value ([1]; wavelength 234) was -267953.82. For the same molecule, the “Normalized CD spectra” value ([1]; wavelength 235) was -242526.22, the “Normalized CD spectra” value ([1]; wavelength 236) was -211308.56 and the “Normalized CD spectra” value ([1]; wavelength 237) was -193934.06. The “Normalized CD spectra” value ([1]; wavelength 238) was -169811.04, the “Normalized CD spectra” value ([1]; wavelength 239) was -150960.21 and the “Normalized CD spectra” value ([1]; wavelength 240) was -133346.35. For the same molecule, the “Normalized CD spectra” value ([1]; wavelength 241) was -121501.30, the “Normalized CD spectra” value ([1]; wavelength 242) was -102197.51 and the “Normalized CD spectra” value ([1]; wavelength 243) was -87761.88. The “Normalized CD spectra” value ([1]; wavelength 244) was -83414.73, the “Normalized CD spectra” value ([1]; wavelength 245) was -75886.31 and the “Normalized CD spectra” value ([1]; wavelength 246) was -70034.99. For the same molecule, the “Normalized CD spectra” value ([1]; wavelength 247) was -69696.95, the “Normalized CD spectra” value ([1]; wavelength 248) was -72964.86 and the “Normalized CD spectra” value ([1]; wavelength 249) was -68003.48. The “Normalized CD spectra” value ([1]; wavelength 250) was -71617.98, the “Normalized CD spectra” value ([1]; wavelength 251) was -69597.08 and the “Normalized CD spectra” value ([1]; wavelength 252) was -67483.10. For the same molecule, the “Normalized CD spectra” value ([1]; wavelength 253) was -65276.04, the “Normalized CD spectra” value ([1]; wavelength 254) was -62975.90 and the “Normalized CD spectra” value ([1]; wavelength 255) was -60582.67. For the same molecule, the “Normalized CD spectra” value ([1]; wavelength 256) was -58096.36, the “Normalized CD spectra” value ([1]; wavelength 257) was -55516.97 and the “Normalized CD spectra” value ([1]; wavelength 258) was -52844.50. The “Normalized CD spectra” value ([1]; wavelength 259) was -50078.94, the “Normalized CD spectra” value ([1]; wavelength 260) was -47220.30 and the “Normalized CD spectra” value ([2]; wave length 213.50) was -554935.80. For the same molecule, the “Normalized CD spectra” value ([2]; wave length 214.00) was -554928.93, the “Normalized CD spectra” value ([2]; wave length 214.50) was -552085.14 and the “Normalized CD spectra” value ([2]; wave length 215.00) was -546818.62. For the same molecule, the “Normalized CD spectra” value ([2]; wave length 215.50) was -538803.90, the “Normalized CD spectra” value ([2]; wave length 216.00) was -527793.91 and the “Normalized CD spectra” value ([2]; wave length 216.50) was -515067.58. The “Normalized CD spectra” value ([2]; wave length 217.00) was -500037.64, the “Normalized CD spectra” value ([2]; wave length 217.50) was -483420.09 and the “Normalized CD spectra” value ([2]; wave length 218.00) was -466017.17. For the same molecule, the “Normalized CD spectra” value ([2]; wave length 218.50) was -449741.45, the “Normalized CD spectra” value ([2]; wave length 219.00) was -435025.94 and the “Normalized CD spectra” value ([2]; wave length 219.50) was -421417.88. For the same molecule, the “Normalized CD spectra” value ([2]; wave length 220.00) was -409259.40, the “Normalized CD spectra” value ([2]; wave length 220.50) was -400153.72 and the “Normalized CD spectra” value ([2]; wave length 221.00) was -392999.00. The “Normalized CD spectra” value ([2]; wave length 221.50) was -387283.08, the “Normalized CD spectra” value ([2]; wave length 222.00) was -384427.10 and the “Normalized CD spectra” value ([2]; wave length 222.50) was -381378.29. The “Normalized CD spectra” value ([2]; wave length 223.00) was -378482.47, the “Normalized CD spectra” value ([2]; wave length 223.50) was -375123.31 and the “Normalized CD spectra” value ([2]; wave length 224.00) was -370804.14. For the same molecule, the “Normalized CD spectra” value ([2]; wave length 224.50) was -364567.94, the “Normalized CD spectra” value ([2]; wave length 225.00) was -356446.10 and the “Normalized CD spectra” value ([2]; wave length 225.50) was -347013.66. The “Normalized CD spectra” value ([2]; wave length 226.00) was -335572.40, the “Normalized CD spectra” value ([2]; wave length 226.50) was -322606.15 and the “Normalized CD spectra” value ([2]; wave length 227.00) was -307876.71. For the same molecule, the “Normalized CD spectra” value ([2]; wave length 227.50) was -292058.28, the “Normalized CD spectra” value ([2]; wave length 228.00) was -275601.46 and the “Normalized CD spectra” value ([2]; wave length 228.50) was -259320.67. The “Normalized CD spectra” value ([2]; wave length 229.00) was -242881.21, the “Normalized CD spectra” value ([2]; wave length 229.50) was -227084.08 and the “Normalized CD spectra” value ([2]; wave length 230.00) was -211838.78. The “Normalized CD spectra” value ([2]; wave length 230.50) was -197375.75, the “Normalized CD spectra” value ([2]; wave length 231.00) was -183337.85 and the “Normalized CD spectra” value ([2]; wave length 231.50) was -170797.00. The “Normalized CD spectra” value ([2]; wave length 258.50) was 17161.52, the “Normalized CD spectra” value ([2]; wave length 259.00) was 7899.34 and the “Normalized CD spectra” value ([2]; wave length 259.50) was -2300.94. The “Normalized CD spectra” value ([2]; wave length 260.00) was -13439.31.
